# Experimental data taken from PubChem BioAssay AID485314 (National Center for Advancing Translational Sciences (NCATS), 2010).
# The campaign covered roughly 340,000 compounds. About 4,500 (1.3%) were called active. Inconclusive results, whose numbers are uncertain, are shown with a selection of clear calls. Calls come from the whole dose curve; as a rule, active = well fitted inhibition curve with a large enough effect; inconclusive = small, poorly fitted or top-dose-only effect, or another doubt; inactive = no such curve, though single readings can be large or run the other way. Potencies beside an inconclusive call are fits to weak or partial responses and may not hold up.
# Target: DNA polymerase beta (Homo sapiens) (UniProt P06746)
# Experiment: qHTS Assay for Inhibitors of DNA Polymerase Beta
# Conditions: Pol beta primer extension/strand displacement, fluorescence kinetic; series mostly up to 114 µM
# Method in brief: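 Enzyme-only controls used 10 nM Pol beta; buffer lacking enzyme served as negative control. Compound preincubated 15 min, then 50 nM substrate added; 0 and 10 min reads at room temperature.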
# Potency is the fitted concentration of half-maximal effect.
row,SMILES,Potency
1,Cn1cc(NC(=O)c2cc(NC(=O)c3cc(NC=O)cn3C)cn2C)cc1C(=O)NCCC(=N)N,active: 14.1 µM
2,CCC(Oc1cc(Cl)ccc1Cl)C(=O)NNC(=O)CCC(=O)O (stereo unspecified),"inconclusive: 79.4 µM [inhibitor, single point]"
3,COc1ccc(-c2nnc(SCC(=O)Oc3cccc(C)c3C)o2)cc1,"inconclusive: 89.1 µM [inhibitor, single point]"
4,Clc1ccc(C2=C3CCCCn4c(-c5ccccc5)c[n+](c43)C2)cc1,"inconclusive: 11.2 µM [inhibitor, partial curve, poor fit]"
5,CC(=O)c1cccc(OCC(O)CN2CCN(C(=O)c3ccco3)CC2)c1 (stereo unspecified),"inconclusive: 100 µM [inhibitor, single point]"
6,Cc1cc(C)c(S(=O)(=O)NCC(c2ccc(N(C)C)cc2)N2CCc3ccccc32)c(C)c1 (stereo unspecified),"inconclusive: 89.1 µM [inhibitor, single point]"
7,CCOC(=O)c1ccc(Nc2nc(C(=O)OCC)nc3ccccc23)cc1,"inconclusive: 79.4 µM [inhibitor, single point]"
8,O=C(Cn1cnc2ccccc2c1=O)NCC(=O)N1CCOCC1,"inconclusive: 100 µM [inhibitor, single point]"
9,Cn1c(SCC#N)nc2ccccc2c1=O,"inconclusive: 70.8 µM [inhibitor, single point]"
10,CCOC(=O)C1=C(CN2CCN(c3cc(C)ccc3C)CC2)NC(=O)NC1c1ccccc1 (stereo unspecified),inactive
11,CCNc1nc(NCC)nc(Nn2cnnc2)n1,"inconclusive: 89.1 µM [inhibitor, single point]"
12,COc1ccccc1C(=O)NCCN1CCN(c2ccccc2)CC1,"inconclusive: 0.891 µM [inhibitor, full curve, poor fit]"
13,COc1ccc(Cl)cc1S(=O)(=O)n1c([N+](=O)[O-])cnc1C,inactive
14,CCOc1cc(Br)cc(C(c2c(C(=O)O)[nH]c3ccccc23)c2c(C(=O)O)[nH]c3ccccc23)c1O,"inconclusive: 10 µM [inhibitor, partial curve, poor fit]"
15,CCc1ccc2oc(C(=O)NCCc3ccc(OC)c(OC)c3)cc(=O)c2c1,"inconclusive: 89.1 µM [inhibitor, single point]"
16,CCOC(=O)C1(Cc2ccccc2C(F)(F)F)CCN(Cc2ccc(COC)o2)CC1,"inconclusive: 79.4 µM [inhibitor, single point]"
17,COc1cccc(CN2C(=O)C3(SCC(=O)N3c3cc(C)cc(C)c3)c3ccccc32)c1 (stereo unspecified),"inconclusive: 39.8 µM [inhibitor, single point]"
18,CCOC(=O)c1sc2ncn(/N=C/c3ccc(O)c(OC)c3)c(=O)c2c1C,"inconclusive: 0.562 µM [inhibitor, full curve]"
19,CCc1c(O)cc(=O)n(-c2ccccc2)c1-c1ccccc1,active: 22.4 µM
20,Cc1cc(Cl)ccc1NC(=S)NCc1ccc(F)cc1,"inconclusive: 15.8 µM [inhibitor, single point]"
21,S=C(NCc1ccccc1)Nc1ccc(Oc2ccccc2)cc1,"inconclusive: 31.6 µM [inhibitor, single point]"

# In a second layout: entries from further up
row | SMILES | Potency
9 | Cn1c(SCC#N)nc2ccccc2c1=O | inconclusive: 70.8 µM [inhibitor, single point]
10 | CCOC(=O)C1=C(CN2CCN(c3cc(C)ccc3C)CC2)NC(=O)NC1c1ccccc1 (stereo unspecified) | inactive

# More results:

row,SMILES,Potency
1,NCCCC[C@@H]1NC(=O)[C@H](CCC(=O)O)NC(=O)c2cc([N+](=O)[O-])cc(I)c2SC[C@@H](C(=O)NCC(N)=O)NC1=O,inactive
2,O=C(/C=C/c1ccco1)NC(=S)Nc1ccccc1,"inconclusive: 31.6 µM [inhibitor, full curve]"
3,C=Cc1ccc(Cn2c(C(=O)O)c(CNC3CCCCC3)c3ccc(OC)cc32)cc1,active: 35.5 µM
4,CC1=NN(c2ccc(C)cc2C)C(=O)C1C(c1ccccc1O)C1C(=O)N(c2ccc(C)cc2C)N=C1C (stereo unspecified),inactive
5,CCc1ccc(NC(=O)CSc2nc(-c3cccc(OC)c3)nc3c2Cc2c(CO)cnc(C)c2O3)cc1,"inconclusive: 79.4 µM [inhibitor, partial curve]"
6,CCOc1ccc2[nH]c(=O)c(CN(Cc3ccco3)Cc3nnnn3Cc3ccccc3)cc2c1,inactive
7,C/C(=N\Nc1cccc(C(F)(F)F)c1)c1ccc(O)cc1,inactive
8,COc1ccc(OC)c(CNC(=O)c2ccc3c(c2)c(C)c(C)n3C)c1,"inconclusive: 35.5 µM [inhibitor, single point]"
9,COc1ccc(N2CCN(C(=O)CN3C(=O)COc4ccc(S(=O)(=O)N5CCC(C)CC5)cc43)CC2)cc1,inactive
10,CCN(CC)C(=O)/C(=C/c1ccc2c(c1)OCO2)NC(=O)c1ccc(Br)cc1,"inconclusive: 89.1 µM [inhibitor, single point]"
11,COc1ccc(NC(=O)c2oc3ccccc3c2NC(=O)Cc2coc3ccc(C)cc23)cc1,inactive
12,CCOC(=O)c1c(Nc2ccccc2OCCOC)n[nH]c1C,"inconclusive: 56.2 µM [inhibitor, partial curve, poor fit]"
13,COc1cccc(CNCC(=O)Nc2ccc(N3CCOCC3)cc2)c1,"inconclusive: 0.141 µM [inhibitor, full curve, poor fit]"
14,C=CCOc1ccc(/C(O)=C2/C(=O)C(=O)N(CCCn3ccnc3)C2c2cccs2)cc1 (stereo unspecified),"inconclusive: 31.6 µM [inhibitor, full curve]"
15,CC(C)C[C@H](NC(=O)c1[nH]cnc1C(=O)N[C@@H](Cc1ccccc1)C(=O)OC(C)(C)C)C(=O)OC(C)(C)C,"inconclusive: 22.4 µM [inhibitor, full curve, poor fit]"
16,COc1ccc(OC)c(N(CC(=O)NC2CC3CCC2C3)S(=O)(=O)c2ccccc2)c1 (stereo unspecified),inactive
17,CCOc1ccccc1CNC(=O)c1oc2c(c1C)-c1[nH]ncc1CC2,"inconclusive: 56.2 µM [inhibitor, single point]"
18,CCCN(CCC)C(=O)Cn1c(=O)n(CCCCCC(=O)NCc2ccc3c(c2)OCO3)c(=O)c2sccc21,"inconclusive: 89.1 µM [inhibitor, single point]"
19,C[N+](C)(C)CCCN1C(=O)CCCC1=O,"inconclusive: 0.631 µM [inhibitor, full curve, poor fit]"
20,O=[N+]([O-])c1ccccc1/C=C/CN1CCN(Cc2ccc3c(c2)OCO3)CC1,inactive
